Assay results reported in paper PMC9544108 (Chemmedchem, 2022).
For some of these results: Strings that start with PEPTIDE1 are HELM notation: dots part the residues, brackets hold end groups and non-standard residues. Numbered stars: 1 amine (or outer) side, 2 acyl side, 3 side chain; on linkers, the order of the positions; unused ones are H or OH. Square brackets hold non-standard residues; d marks the D form. Peptide text beside a SMILES is read from it. γGlu = O=C(O)[C@H](CCC(=O)[*:2])N[*:1]; Cya = N[C@@H](CS(=O)(=O)O)C(=O)O

How the values were obtained:
[1] = UV-monitored back-titration of the Pb(II)-peptide complex with ZnCl2 or CaCl2 (complex stability); type: physicochemical; settings: Pb(II)-peptide 100 μM; for absorption of the LMCT band relative to holo, back-titration with ZnCl2: 20 mM Tris pH 6.5, ZnCl2 0-1 mM (0-10 equiv.), 8: after the second equivalent, 9: highest concentration
[2] = UV-monitored reversed back-titration with Pb(II) of peptide mixed with ZnCl2 or CaCl2 (metal selectivity); type: physicochemical; settings: peptide 100 μM, Pb(II) 0-1 equiv.; for Pb(II) complexation in the presence of CaCl2, in words: CaCl2 10 mM (100 fold excess)
[3] = general procedure: Fmoc solid-phase peptide synthesis; 2-chlorotrityl chloride resin; HATU / Hünig's base; settings: cyclisation step, HCl (ion exchange from TFA)

## NC(=O)C[C@@H]1NC(=O)CNC(=O)[C@H](CS)NC(=O)CC[C@@H](C(=O)O)NC(=O)[C@H](CC(N)=O)NC(=O)CNC(=O)[C@H](CS)NC(=O)CC[C@@H](C(=O)O)NC1=O [peptide 8] (cyclo(CGN[γGlu]CGN[γGlu]))
[1]; 317 nm
  absorption of the LMCT band relative to holo, back-titration with ZnCl2: around 30%
[1]; 1 equiv. ZnCl2
  LMCT band on adding equimolar ZnCl2, in words: did not significantly affect the LMCT band
[1]; CaCl2 0-10 mM
  LMCT band on back-titration with CaCl2, in words: did not lower its intensity
[2]
  Pb(II) complexation in the presence of CaCl2, in words: same behavior
[2]; ZnCl2 1 mM
  Pb(II) complexation in the presence of ZnCl2, in words: no typical LMCT

## O=C1CC[C@@H](C(=O)O)NC(=O)[C@H](CS(=O)(=O)O)NC(=O)CNC(=O)[C@H](CS)NC(=O)CC[C@@H](C(=O)O)NC(=O)[C@H](CS(=O)(=O)O)NC(=O)CNC(=O)[C@H](CS)N1 [peptide 9] (cyclo(CG[Cya][γGlu]CG[Cya][γGlu]))
[1]; 20 mM Tris pH 6.5, CaCl2 0-10 mM (0-100 equiv.), highest concentration, 317 nm
  absorption of the LMCT band relative to holo, back-titration with CaCl2: 29%
[1]; 317 nm
  absorption of the LMCT band relative to holo, back-titration with ZnCl2: 48%
[2]; 10 equivalents ZnCl2 (1 mM), 20 mM Tris pH 6.5
  intensity relative to holo absorption, Pb(II) titrated in the presence of ZnCl2: 42%
[2]
  Pb(II) complexation in the presence of CaCl2, in words: complete complexation with Pb(II) ions

## PEPTIDE1{A.[bAsp].C.G.A.[bAsp].C.G}$PEPTIDE1,PEPTIDE1,1:R1-8:R2$$$V2.0
[3]
  difficulty met: LCMS analysis did not reveal full conversion or indicate further reaction progression
